Test results taken from article PMC9884267.

Amino acid sequences for entries named in this document (tags omitted).
UniProt Q9NP66: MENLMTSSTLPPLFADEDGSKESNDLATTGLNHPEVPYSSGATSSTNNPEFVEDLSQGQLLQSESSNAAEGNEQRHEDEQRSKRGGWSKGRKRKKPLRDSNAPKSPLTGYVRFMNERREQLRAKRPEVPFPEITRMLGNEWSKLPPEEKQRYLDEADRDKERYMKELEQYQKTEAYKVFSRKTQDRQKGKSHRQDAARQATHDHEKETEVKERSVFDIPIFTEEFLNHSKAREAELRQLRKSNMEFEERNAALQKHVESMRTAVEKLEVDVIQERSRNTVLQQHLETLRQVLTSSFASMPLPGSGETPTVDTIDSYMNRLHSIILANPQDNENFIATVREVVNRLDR
UniProt Q96BD5: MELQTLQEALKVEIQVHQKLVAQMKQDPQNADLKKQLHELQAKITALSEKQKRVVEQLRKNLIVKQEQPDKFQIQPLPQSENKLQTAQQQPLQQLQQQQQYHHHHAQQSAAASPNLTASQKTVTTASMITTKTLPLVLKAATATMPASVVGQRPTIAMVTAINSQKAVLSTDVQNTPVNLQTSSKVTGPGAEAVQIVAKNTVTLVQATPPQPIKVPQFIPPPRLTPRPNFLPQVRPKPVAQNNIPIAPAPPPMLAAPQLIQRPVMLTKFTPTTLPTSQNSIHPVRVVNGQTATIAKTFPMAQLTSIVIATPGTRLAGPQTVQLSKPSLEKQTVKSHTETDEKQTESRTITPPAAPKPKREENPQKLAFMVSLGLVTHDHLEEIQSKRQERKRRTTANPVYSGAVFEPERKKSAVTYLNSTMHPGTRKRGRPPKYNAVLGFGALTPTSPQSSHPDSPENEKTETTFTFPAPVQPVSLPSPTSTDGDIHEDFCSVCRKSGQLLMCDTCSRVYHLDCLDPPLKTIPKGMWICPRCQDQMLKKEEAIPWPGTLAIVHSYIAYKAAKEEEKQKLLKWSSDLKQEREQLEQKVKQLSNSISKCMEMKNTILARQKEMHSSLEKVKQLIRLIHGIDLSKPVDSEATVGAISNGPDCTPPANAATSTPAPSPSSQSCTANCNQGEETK
UniProt Q9UKL0: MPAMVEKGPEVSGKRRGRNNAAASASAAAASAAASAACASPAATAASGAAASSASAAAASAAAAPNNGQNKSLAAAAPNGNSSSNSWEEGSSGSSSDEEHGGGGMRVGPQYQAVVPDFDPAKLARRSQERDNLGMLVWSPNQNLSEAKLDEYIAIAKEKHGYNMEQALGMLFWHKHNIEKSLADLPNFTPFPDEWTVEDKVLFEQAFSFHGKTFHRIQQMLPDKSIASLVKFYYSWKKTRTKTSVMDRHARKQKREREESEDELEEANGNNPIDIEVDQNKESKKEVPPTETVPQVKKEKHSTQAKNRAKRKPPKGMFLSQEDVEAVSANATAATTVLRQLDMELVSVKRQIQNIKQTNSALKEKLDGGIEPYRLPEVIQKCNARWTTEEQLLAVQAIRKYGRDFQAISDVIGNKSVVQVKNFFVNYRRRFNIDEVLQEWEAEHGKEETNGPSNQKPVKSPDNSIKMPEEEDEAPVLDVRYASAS
UniProt Q7Z5J4: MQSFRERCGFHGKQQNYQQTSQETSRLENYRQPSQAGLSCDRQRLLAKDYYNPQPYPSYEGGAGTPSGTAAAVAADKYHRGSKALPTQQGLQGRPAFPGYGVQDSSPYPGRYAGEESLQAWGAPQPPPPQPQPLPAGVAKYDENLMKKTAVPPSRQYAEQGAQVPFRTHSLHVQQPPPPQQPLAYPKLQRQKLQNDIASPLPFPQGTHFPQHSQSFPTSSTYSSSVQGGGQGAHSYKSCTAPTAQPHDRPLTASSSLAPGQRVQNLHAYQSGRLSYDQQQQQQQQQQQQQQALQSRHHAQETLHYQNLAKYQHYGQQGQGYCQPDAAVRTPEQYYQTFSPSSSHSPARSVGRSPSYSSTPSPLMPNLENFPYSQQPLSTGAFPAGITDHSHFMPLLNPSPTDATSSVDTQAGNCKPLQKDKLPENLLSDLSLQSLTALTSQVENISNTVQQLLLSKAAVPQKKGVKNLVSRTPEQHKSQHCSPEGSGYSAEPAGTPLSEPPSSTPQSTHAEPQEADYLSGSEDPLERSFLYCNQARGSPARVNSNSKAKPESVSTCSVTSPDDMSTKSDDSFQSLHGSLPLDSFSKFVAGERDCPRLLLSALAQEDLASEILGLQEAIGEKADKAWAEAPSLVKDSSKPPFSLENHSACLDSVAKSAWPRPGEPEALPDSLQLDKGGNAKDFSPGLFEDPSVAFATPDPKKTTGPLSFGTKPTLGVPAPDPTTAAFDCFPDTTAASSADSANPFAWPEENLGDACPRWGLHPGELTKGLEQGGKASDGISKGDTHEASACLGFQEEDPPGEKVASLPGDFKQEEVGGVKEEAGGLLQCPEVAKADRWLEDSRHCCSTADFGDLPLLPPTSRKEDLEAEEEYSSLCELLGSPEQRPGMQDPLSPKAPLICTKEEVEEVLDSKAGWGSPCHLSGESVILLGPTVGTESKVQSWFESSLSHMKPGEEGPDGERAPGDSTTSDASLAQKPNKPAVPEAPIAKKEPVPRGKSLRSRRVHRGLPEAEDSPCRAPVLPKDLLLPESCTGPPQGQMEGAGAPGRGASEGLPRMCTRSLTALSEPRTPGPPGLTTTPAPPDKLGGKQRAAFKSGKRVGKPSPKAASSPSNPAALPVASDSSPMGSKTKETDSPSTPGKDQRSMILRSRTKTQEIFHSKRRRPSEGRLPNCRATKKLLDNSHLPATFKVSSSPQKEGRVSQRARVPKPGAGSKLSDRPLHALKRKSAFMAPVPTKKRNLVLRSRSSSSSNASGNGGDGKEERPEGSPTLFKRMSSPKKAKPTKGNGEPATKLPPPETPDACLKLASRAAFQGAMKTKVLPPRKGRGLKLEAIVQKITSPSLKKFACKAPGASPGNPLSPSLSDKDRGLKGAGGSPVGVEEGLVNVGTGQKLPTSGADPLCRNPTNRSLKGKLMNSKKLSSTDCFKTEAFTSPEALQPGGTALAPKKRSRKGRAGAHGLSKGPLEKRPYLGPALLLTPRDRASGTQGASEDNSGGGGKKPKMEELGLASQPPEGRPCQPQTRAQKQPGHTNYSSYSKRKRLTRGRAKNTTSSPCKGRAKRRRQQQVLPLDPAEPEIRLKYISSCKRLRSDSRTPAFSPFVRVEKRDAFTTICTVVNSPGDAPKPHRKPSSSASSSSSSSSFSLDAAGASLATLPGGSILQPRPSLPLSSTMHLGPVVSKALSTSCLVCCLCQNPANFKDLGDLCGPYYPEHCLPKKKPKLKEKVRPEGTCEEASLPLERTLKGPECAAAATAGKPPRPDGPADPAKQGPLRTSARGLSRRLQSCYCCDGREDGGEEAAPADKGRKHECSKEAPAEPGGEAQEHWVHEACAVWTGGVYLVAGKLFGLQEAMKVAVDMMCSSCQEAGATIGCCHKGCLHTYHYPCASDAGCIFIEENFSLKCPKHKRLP
UniProt Q9UGU0: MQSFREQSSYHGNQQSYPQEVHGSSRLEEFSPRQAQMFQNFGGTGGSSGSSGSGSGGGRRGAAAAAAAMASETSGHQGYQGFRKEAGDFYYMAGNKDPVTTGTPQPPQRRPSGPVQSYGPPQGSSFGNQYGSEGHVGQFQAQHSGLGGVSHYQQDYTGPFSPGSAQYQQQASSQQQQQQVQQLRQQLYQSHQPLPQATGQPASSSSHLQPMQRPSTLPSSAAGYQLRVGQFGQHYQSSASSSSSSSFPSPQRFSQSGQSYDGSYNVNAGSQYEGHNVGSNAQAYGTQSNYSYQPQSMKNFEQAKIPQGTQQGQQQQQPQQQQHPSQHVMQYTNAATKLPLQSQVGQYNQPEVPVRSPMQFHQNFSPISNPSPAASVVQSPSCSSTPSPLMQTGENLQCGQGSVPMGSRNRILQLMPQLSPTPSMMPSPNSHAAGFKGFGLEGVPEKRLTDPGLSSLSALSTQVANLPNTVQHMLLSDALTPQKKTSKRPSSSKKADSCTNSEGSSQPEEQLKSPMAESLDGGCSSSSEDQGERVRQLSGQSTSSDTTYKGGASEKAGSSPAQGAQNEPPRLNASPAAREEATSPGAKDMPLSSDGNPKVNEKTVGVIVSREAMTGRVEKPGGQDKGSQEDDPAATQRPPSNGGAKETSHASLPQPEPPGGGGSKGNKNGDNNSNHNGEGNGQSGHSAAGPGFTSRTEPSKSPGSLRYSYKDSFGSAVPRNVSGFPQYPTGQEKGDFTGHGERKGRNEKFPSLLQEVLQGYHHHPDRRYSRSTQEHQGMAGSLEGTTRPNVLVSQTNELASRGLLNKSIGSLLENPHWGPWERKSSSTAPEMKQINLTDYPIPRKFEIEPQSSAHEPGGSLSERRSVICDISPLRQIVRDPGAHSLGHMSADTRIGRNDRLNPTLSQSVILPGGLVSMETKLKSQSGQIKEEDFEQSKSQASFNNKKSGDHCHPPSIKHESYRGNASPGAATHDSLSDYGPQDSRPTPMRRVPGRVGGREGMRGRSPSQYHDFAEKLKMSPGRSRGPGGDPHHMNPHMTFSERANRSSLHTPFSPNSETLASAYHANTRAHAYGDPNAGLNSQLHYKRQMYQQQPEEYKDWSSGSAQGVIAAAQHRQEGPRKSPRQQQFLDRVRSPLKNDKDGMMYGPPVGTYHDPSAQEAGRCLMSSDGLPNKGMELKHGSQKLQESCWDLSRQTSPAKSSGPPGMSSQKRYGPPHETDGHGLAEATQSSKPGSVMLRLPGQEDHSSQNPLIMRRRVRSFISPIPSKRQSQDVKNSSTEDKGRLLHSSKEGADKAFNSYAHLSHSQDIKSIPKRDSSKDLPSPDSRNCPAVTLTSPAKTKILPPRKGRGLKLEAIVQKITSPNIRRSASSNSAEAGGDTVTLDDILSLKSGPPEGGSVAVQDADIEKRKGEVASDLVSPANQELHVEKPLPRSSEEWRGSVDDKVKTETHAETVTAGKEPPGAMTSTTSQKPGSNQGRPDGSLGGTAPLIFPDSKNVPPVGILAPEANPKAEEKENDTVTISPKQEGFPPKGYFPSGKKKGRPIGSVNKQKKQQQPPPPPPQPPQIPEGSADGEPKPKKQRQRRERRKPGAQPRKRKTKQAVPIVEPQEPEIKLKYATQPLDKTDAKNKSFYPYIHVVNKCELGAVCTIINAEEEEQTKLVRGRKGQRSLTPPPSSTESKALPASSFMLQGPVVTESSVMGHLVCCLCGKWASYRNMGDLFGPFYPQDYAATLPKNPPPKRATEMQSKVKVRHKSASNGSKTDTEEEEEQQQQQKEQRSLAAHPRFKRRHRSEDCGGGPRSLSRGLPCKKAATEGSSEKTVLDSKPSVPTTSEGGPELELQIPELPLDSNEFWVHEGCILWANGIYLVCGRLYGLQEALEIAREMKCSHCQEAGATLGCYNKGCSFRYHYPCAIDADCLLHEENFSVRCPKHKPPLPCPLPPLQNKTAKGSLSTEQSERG

B1: zinc finger protein ZNF512B (protein, UniProt Q96KM6 1-892)
chain: MTDPFCVGGRRLPGSSKSGPGKDGSRKEVRLPMLHDPPKMGMPVVRGGQTVPGQAPLCFDPGSPASDKTEGKKKGRPKAENQALRDIPLSLMNDWKDEFKAHSRVKCPNSGCWLEFPSIYGLKYHYQRCQGGAISDRLAFPCPFCEAAFTSKTQLEKHRIWNHMDRPLPASKPGPISRPVTISRPVGVSKPIGVSKPVTIGKPVGVSKPIGISKPVSVGRPMPVTKAIPVTRPVPVTKPVTVSRPMPVTKAMPVTKPITVTKSVPVTKPVPVTKPITVTKLVTVTKPVPVTKPVTVSRPIVVSKPVTVSRPIAISRHTPPCKMVLLTRSENKAPRATGRNSGKKRAADSLDTCPIPPKQARPENGEYGPSSMGQSSAFQLSADTSSGSLSPGSRPSGGMEALKAAGPASPPEEDPERTKHRRKQKTPKKFTGEQPSISGTFGLKGLVKAEDKARVHRSKKQEGPGPEDARKKVPAAPITVSKEAPAPVAHPAPGGPEEQWQRAIHERGEAVCPTCNVVTRKTLVGLKKHMEVCQKLQDALKCQHCRKQFKSKAGLNYHTMAEHSAKPSDAEASEGGEQEERERLRKVLKQMGRLRCPQEGCGAAFSSLMGYQYHQRRCGKPPCEVDSPSFPCTHCGKTYRSKAGHDYHVRSEHTAPPPEEPTDKSPEAEDPLGVERTPSGRVRRTSAQVAVFHLQEIAEDELARDWTKRRMKDDLVPETARLNYTRPGLPTLNPQLLEAWKNEVKEKGHVNCPNDCCEAIYSSVSGLKAHLASCSKGAHLAGKYRCLLCPKEFSSESGVKYHILKTHAENWFRTSADPPPKHRSQDSLVPKKEKKKNLAGGKKRGRKPKERTPEEPVAKLPPRRDDWPPGCRDKGARGSTGRKVGVSKAPEK
B2: BEND3 (protein, UniProt Q5T5X7 1-828)
chain: MNSTEFTEDVEEVLKSITVKVETEAEDAALDCSVNSRTSEKHSVDSVLTALQDSSKRKQLVSDGLLDSVPGVKRRRLIPEALLAGMRNRENSSPCQGNGEQAGRGRSLGNVWPGEEEPCNDATTPSYKKPLYGISHKIMEKKNPPSGDLLNVYELFEKANASNSPSSLRLLNEPQKRDCGSTGAGTDNDPNIYFLIQKMFYMLNTLTSNMSQLHSKVDLLSLEVSRIKKQVSPTEMVAKFQPPPEYQLTAAELKQIVDQSLSGGDLACRLLVQLFPELFSDVDFSRGCSACGFAAKRKLESLHLQLIRNYVEVYYPSVKDTAVWQAECLPQLNDFFSRFWAQREMEDSQPSGQVASFFEAEQVDPGHFLDNKDQEEALSLDRSSTIASDHVVDTQDLTEFLDEASSPGEFAVFLLHRLFPELFDHRKLGEQYSCYGDGGKQELDPQRLQIIRNYTEIYFPDMQEEEAWLQQCAQRINDELEGLGLDAGSEGDPPRDDCYDSSSLPDDISVVKVEDSFEGERPGRRSKKIWLVPIDFDKLEIPQPDFEVPGADCLLSKEQLRSIYESSLSIGNFASRLLVHLFPELFTHENLRKQYNCSGSLGKKQLDPSRIKLIRHYVQLLYPRAKNDRVWTLEFVGKLDERCRRRDTEQRRSYQQQRKVHVPGPECRDLTSYAINPERFREEFEGPPLPPERSSKDFCKIPLDELVVPSPDFPVPSPYLLSDKEVREIVQQSLSVGNFAARLLVRLFPELFTAENLRLQYNHSGACNKKQLDPTRLRLIRHYVEAVYPVEKMEEVWHYECIPSIDERCRRPNRKKCDILKKAKKVEK
B3: HMG20B (protein, UniProt Q9P0W2 1-317)
chain: MSHGPKQPGAAAAPAGGKAPGQHGGFVVTVKQERGEGPRAGEKGSHEEEPVKKRGWPKGKKRKKILPNGPKAPVTGYVRFLNERREQIRTRHPDLPFPEITKMLGAEWSKLQPTEKQRYLDEAEREKQQYMKELRAYQQSEAYKMCTEKIQEKKIKKEDSSSGLMNTLLNGHKGGDCDGFSTFDVPIFTEEFLDQNKAREAELRRLRKMNVAFEEQNAVLQRHTQSMSSARERLEQELALEERRTLALQQQLQAVRQALTASFASLPVPGTGETPTLGTLDFYMARLHGAIERDPAQHEKLIVRIKEILAQVASEHL
B4: L3MBTL3 (protein, UniProt Q96JM7 1-780)
chain: MTESASSTSGQEFDVFSVMDWKDGVGTLPGSDLKFRVNEFGALEVITDENEMENVKKATATTTWMVPTAQEAPTSPPSSRPVFPPAYWTSPPGCPTVFSEKTGMPFRLKDPVKVEGLQFCENCCQYGNVDECLSGGNYCSQNCARHIKDKDQKEERDVEEDNEEEDPKCSRKKKPKLSLKADTKEDGEERDDEMENKQDVRILRGSQRARRKRRGDSAVLKQGLPPKGKKAWCWASYLEEEKAVAVPAKLFKEHQSFPYNKNGFKVGMKLEGVDPEHQSVYCVLTVAEVCGYRIKLHFDGYSDCYDFWVNADALDIHPVGWCEKTGHKLHPPKGYKEEEFNWQTYLKTCKAQAAPKSLFENQNITVIPSGFRVGMKLEAVDKKNPSFICVATVTDMVDNRFLVHFDNWDESYDYWCEASSPHIHPVGWCKEHRRTLITPPGYPNVKHFSWDKYLEETNSLPAPARAFKVKPPHGFQKKMKLEVVDKRNPMFIRVATVADTDDHRVKVHFDGWNNCYDYWIDADSPDIHPVGWCSKTGHPLQPPLSPLELMEASEHGGCSTPGCKGIGHFKRARHLGPHSAANCPYSEINLNKDRIFPDRLSGEMPPASPSFPRNKRTDANESSSSPEIRDQHADDVKEDFEERTESEMRTSHEARGAREEPTVQQAQRRSAVFLSFKSPIPCLPLRWEQQSKLLPTVAGIPASKVSKWSTDEVSEFIQSLPGCEEHGKVFKDEQIDGEAFLLMTQTDIVKIMSIKLGPALKIFNSILMFKAAEKNSHNEL
B5: GSE1 (protein, UniProt Q14687 1-1217)
chain: MKGMSHEPKSPSLGMLSTATRTTATVNPLTPSPLNGALVPSGSPATSSALSAQAAPSSSFAAALRKLAKQAEEPRGSSLSSESSPVSSPATNHSSPASTPKRVPMGPIIVPPGGHSVPSTPPVVTIAPTKTVNGVWRSESRQDAGSRSSSGGRERLIVEPPLPQEKAGGPAIPSHLLSTPYPFGLSPSSVVQDSRFPPLNLQRPVHHVVPPSTVTEDYLRSFRPYHTTDDLRMSSLPPLGLDPATAAAYYHPSYLAPHPFPHPAFRMDDSYCLSALRSPFYPIPTPGSLPPLHPSAMHLHLSGVRYPPELSHSSLAALHSERMSGLSAERLQMDEELRREREREREREREREADREREKEREREREKEREQEKEREREKERERELERQREQRAREKELLAAKALEPSFLPVAELHGLRGHATEERGKPSEQLTPTRAEKLKDAGLQAPKPVQHPLHPVPTPHHTVPSLISNHGIFSLPSSSAATALLIQRTNEEEKWLARQRRLRQEKEDRQSQVSEFRQQVLEQHLDMGRPPVPAEAEHRPESTTRPGPNRHEPGGRDPPQHFGGPPPLISPKPQLHAAPTALWNPVSLMDNTLETRRAESHSLHSHPAAFEPSRQAAVPLVKVERVFCPEKAEEGPRKREPAPLDKYQPPPPPPREGGSLEHQPFLPGPGPFLAELEKSTQTILGQQRASLPQAATFGELSGPLKPGSPYRPPVPRAPDPAYIYDEFLQQRRRLVSKLDLEERRRREAQEKGYYYDLDDSYDESDEEEVRAHLRCVAEQPPLKLDTSSEKLEFLQLFGLTTQQQKEELVAQKRRKRRRMLRERSPSPPTIQSKRQTPSPRLALSTRYSPDEMNNSPNFEEKKKFLTIFNLTHISAEKRKDKERLVEMLRAMKQKALSAAVADSLTNSPRDSPAVSLSEPATQQASLDVEKPVGVAASLSDIPKAAEPGKLEQVRPQELSRVQELAPASGEKARLSEAPGGKKSLSMLHYIRGAAPKDIPVPLSHSTNGKSKPWEPFVAEEFAHQFHESVLQSTQKALQKHKGSVAVLSAEQNHKVDTSVHYNIPELQSSSRAPPPQHNGQQEPPTARKGPPTQELDRDSEEEEEEDDEDGEDEEEVPKRKWQGIEAVFEAYQEHIEEQNLERQVLQTQCRRLEARHYSLSLTAEQLSHSVAELRSQKQKMVSERERLQAELDHLRKCLALPAMHWPRGYLKGYPR

target: GFP-HMG20A (High Mobility Group 20A), stably expressed in HeLa Kyoto cells (human) (UniProt Q9NP66); experiment: affinity purification with mass spectrometry; GFP-HMG20A mononucleosome IP from HeLaK cells with GFP-TRAP beads, on-bead tryptic digestion, label-free quantitative MS/MS against GFP control; two biological replicates

Row | binding | Molecule
1 | binds | PHF21A (from UniProt Q96BD5 1-680)
2 | binds | RCOR1 (from UniProt Q9UKL0 1-485)
3 | binds | RCOR3 (from UniProt Q9P2K3 1-495)
4 | binds | Retinoic Acid Induced 1 (RAI1) (from UniProt Q7Z5J4 1-1906)
5 | binds | Transcription Factor 20 (TCF20) (from UniProt Q9UGU0 1-1960)
6 | binds | B1
7 | binds | B2
8 | binds | B3
9 | binds | B4
10 | binds | B5

No constants are given. Whether binding was seen depends on the method and setting. Binding seen in cells or lysates may run through a third protein. These calls come from enrichment with a bait or labelling near it, and not all partners need be listed.
